According to the supplement of paper PMC10849652:
The list shows a part of the results.

By UniProt entry, the sequences of proteins in these tests, tags left out. Where a name states a change or a piece, a line headed by the entry shows the natural chain unless it says otherwise.
UniProt Q9NRZ5: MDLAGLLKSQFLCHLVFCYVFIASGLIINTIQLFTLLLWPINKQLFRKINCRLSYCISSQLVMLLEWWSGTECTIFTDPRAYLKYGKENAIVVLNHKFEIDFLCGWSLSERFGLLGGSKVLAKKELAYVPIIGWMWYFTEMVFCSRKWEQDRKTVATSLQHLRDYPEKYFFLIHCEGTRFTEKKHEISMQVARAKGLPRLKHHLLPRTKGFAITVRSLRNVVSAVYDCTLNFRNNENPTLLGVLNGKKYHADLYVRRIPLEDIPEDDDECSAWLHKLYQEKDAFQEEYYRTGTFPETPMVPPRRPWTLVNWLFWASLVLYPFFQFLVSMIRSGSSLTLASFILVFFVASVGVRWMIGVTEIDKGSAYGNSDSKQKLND
UniProt Q02252: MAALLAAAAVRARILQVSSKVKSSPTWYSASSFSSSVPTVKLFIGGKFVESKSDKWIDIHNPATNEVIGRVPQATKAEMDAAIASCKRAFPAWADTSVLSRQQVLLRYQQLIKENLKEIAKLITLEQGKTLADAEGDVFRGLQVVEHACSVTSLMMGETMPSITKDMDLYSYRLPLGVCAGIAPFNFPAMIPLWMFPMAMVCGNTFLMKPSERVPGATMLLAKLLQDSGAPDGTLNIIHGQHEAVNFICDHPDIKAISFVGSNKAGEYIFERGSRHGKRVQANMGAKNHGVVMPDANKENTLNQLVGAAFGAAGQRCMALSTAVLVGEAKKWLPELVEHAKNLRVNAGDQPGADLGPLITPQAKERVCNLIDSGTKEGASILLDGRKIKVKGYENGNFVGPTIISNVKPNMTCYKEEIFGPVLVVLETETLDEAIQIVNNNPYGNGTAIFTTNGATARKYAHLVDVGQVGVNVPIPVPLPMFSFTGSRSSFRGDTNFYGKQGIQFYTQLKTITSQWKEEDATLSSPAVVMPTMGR
UniProt P35573: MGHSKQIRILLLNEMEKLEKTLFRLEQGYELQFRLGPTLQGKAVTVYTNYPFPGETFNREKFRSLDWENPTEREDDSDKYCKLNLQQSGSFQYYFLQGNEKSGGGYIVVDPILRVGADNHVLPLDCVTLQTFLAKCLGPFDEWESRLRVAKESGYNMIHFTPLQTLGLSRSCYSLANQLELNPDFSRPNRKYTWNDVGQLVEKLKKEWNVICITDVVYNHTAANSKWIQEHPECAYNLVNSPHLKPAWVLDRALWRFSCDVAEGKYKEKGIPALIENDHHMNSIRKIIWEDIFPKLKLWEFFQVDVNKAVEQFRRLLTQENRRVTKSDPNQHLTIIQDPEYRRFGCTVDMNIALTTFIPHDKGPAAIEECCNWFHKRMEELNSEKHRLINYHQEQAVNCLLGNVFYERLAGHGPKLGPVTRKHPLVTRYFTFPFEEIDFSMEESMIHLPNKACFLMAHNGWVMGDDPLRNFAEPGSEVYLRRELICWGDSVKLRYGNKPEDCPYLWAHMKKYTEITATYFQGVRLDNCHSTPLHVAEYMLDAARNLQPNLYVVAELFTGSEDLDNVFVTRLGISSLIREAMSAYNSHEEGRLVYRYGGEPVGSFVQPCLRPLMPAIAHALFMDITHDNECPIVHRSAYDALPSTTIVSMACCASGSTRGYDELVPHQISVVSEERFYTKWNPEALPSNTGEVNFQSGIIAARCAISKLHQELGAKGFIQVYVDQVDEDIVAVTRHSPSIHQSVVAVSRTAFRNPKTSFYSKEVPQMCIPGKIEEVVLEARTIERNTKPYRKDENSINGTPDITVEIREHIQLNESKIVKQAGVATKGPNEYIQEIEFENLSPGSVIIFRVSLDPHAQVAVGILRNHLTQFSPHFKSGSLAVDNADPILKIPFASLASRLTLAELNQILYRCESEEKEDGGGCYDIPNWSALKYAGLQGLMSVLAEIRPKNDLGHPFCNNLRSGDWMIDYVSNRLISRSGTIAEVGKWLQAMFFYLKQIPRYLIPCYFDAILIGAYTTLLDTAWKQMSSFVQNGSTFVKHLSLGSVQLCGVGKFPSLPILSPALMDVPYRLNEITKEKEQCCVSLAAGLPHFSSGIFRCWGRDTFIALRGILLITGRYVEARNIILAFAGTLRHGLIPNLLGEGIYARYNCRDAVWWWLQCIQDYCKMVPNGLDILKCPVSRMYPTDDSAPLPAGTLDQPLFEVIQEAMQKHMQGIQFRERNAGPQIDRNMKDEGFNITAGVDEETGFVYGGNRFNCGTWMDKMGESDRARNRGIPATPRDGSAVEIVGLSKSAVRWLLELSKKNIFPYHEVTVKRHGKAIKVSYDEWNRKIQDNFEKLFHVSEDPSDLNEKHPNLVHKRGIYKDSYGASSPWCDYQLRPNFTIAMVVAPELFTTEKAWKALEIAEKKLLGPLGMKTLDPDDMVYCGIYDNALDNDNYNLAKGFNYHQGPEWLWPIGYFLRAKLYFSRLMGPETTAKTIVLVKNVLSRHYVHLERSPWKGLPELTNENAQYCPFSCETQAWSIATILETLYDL
UniProt Q9UM13, whole entry, looked up: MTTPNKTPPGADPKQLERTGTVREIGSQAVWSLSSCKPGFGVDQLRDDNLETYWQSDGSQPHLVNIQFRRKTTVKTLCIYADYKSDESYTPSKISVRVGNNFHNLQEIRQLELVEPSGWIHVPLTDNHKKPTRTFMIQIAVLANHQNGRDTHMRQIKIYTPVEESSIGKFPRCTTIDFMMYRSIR
UniProt Q96BJ3: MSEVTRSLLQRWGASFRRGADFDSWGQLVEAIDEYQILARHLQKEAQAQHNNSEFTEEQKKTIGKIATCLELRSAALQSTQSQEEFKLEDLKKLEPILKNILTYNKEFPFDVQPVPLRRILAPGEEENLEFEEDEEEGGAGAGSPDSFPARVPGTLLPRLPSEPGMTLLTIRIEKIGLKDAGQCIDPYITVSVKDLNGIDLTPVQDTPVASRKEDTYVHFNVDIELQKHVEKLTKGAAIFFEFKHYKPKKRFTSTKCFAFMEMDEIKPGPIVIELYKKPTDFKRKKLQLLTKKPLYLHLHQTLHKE
UniProt P35612: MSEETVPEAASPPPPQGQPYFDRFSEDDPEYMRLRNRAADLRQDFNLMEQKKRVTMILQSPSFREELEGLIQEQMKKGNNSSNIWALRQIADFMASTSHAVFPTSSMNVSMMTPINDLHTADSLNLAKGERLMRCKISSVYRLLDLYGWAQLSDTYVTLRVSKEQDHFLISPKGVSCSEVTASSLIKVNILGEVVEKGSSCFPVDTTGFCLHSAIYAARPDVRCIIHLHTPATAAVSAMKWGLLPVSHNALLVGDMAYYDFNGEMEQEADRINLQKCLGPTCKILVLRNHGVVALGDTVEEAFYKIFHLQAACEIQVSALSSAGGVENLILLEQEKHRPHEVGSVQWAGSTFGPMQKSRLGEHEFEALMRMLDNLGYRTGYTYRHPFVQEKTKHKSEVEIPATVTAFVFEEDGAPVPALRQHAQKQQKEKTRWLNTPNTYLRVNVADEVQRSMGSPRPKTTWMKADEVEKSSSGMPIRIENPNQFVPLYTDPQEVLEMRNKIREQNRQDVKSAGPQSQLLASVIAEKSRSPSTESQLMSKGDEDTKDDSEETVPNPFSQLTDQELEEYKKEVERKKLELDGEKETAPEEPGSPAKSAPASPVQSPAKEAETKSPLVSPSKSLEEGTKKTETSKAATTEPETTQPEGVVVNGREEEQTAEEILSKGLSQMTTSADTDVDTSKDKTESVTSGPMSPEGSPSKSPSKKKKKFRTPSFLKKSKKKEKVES
UniProt Q6ULP2: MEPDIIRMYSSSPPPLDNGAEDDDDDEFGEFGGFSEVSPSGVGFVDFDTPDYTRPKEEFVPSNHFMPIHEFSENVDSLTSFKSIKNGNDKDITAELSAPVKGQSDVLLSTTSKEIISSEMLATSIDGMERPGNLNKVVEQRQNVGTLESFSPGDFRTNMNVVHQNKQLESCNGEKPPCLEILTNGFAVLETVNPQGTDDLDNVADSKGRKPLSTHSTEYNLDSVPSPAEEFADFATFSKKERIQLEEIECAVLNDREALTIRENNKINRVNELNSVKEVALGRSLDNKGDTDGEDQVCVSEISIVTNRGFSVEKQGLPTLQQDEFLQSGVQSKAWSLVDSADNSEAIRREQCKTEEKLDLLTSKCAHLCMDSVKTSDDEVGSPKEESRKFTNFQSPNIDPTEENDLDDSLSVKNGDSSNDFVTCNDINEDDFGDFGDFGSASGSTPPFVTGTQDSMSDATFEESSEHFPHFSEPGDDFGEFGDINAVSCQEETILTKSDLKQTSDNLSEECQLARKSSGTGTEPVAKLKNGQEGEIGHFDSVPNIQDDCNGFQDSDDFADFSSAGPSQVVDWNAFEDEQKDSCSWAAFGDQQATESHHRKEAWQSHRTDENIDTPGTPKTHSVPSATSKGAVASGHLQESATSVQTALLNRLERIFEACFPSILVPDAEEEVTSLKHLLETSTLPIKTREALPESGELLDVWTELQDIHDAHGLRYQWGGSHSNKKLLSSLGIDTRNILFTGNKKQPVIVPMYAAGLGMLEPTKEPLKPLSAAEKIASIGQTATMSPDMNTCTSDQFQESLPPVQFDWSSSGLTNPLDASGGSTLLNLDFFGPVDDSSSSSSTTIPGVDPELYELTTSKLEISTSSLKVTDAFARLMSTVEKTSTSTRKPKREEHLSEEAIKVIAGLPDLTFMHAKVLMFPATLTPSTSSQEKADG
UniProt O94788: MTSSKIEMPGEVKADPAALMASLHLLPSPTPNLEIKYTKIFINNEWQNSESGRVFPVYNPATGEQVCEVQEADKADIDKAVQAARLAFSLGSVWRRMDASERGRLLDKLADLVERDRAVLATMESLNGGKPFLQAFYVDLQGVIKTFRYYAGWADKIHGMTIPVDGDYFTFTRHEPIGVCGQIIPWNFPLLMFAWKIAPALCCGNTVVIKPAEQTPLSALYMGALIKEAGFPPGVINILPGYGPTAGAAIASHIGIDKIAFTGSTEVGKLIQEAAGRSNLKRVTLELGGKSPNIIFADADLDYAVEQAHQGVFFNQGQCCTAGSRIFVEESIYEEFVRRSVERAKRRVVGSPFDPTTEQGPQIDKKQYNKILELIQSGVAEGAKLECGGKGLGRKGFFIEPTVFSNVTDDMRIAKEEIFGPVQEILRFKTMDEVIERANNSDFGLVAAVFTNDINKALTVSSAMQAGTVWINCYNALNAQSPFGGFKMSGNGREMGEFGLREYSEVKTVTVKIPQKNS
UniProt Q9UKV5, whole entry, looked up: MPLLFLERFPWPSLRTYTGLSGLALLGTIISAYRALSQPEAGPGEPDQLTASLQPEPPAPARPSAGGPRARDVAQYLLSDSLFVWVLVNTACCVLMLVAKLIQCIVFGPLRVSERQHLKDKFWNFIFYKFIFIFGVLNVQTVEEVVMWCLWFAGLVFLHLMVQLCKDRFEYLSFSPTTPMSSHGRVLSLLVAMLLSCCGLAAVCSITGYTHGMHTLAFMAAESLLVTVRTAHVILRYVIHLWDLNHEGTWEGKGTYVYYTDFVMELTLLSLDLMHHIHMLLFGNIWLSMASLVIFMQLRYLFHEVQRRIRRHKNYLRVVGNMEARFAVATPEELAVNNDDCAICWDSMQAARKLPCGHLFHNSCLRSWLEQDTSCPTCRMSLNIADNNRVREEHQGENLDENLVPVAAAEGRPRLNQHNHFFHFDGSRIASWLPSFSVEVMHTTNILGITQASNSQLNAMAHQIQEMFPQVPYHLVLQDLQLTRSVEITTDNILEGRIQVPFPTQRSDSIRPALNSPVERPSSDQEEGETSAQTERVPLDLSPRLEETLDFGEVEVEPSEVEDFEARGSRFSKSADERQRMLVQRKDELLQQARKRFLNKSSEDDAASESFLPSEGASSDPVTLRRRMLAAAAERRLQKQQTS
UniProt Q6NS38: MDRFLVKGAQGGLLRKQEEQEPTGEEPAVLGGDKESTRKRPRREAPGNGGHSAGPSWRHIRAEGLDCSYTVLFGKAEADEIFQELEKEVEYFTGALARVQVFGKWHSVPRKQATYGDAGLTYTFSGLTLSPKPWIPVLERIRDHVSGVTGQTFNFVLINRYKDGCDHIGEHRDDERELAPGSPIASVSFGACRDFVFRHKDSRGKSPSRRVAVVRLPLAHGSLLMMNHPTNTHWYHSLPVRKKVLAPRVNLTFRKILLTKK
UniProt Q5I7T1: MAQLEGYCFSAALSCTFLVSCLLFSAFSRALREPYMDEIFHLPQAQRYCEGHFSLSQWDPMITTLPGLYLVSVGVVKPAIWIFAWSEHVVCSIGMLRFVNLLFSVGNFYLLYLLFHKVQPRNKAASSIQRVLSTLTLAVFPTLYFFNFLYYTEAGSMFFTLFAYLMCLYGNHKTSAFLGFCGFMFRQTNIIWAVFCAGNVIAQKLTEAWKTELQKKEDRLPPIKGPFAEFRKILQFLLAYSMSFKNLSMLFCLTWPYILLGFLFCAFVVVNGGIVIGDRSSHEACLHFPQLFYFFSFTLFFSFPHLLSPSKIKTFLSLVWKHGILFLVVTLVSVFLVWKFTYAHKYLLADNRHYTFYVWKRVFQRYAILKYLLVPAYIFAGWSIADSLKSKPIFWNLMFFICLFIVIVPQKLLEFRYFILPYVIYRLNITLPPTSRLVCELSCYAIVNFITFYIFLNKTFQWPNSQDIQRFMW

How the values were obtained:
Assay in all cases: log2 fold change, soluble protein after heating vs DMSO (PISA); higher = thermal stabilisation; K562 cells, 10 uM, 30 min; active = over 0.2 and 3.5 SD of the protein, either way, in both replicates (recomputed)
bafetinib = compound: Cc1ccc(NC(=O)c2ccc(CN3CC[C@H](N(C)C)C3)c(C(F)(F)F)c2)cc1Nc1nccc(-c2cncnc2)n1 [bafetinib]
How it was run: (§1)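 K562 cells at 2×10^6 cells/mL were given 10 μM compound for 30 min. Aliquots then went through 3 min of heating across 48°C-58°C, were pooled, and were extracted in PBS with 0.5% NP-40 at 4°C, and the supernatant after 21,000xg for 90 min was quantified by TMTpro 16plex LC-MS/MS with channel sums equalised. Thermal stability relative to control samples, from duplicates, is given as log2 fold change.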

[1] = compound: Cc1cccc(CC(=O)N2CCc3c2ccc(-c2cn(C)c4ncnc(N)c24)c3F)n1
How it was run: as §1

nilotinib = compound: Cc1cn(-c2cc(NC(=O)c3ccc(C)c(Nc4nccc(-c5cccnc5)n4)c3)cc(C(F)(F)F)c2)cn1 [nilotinib]
How it was run: as §1

[2] = compound: Cc1nc(Nc2n[nH]c3c2CN(C(=O)N[C@H](CN(C)C)c2ccccc2)C3(C)C)c2sccc2n1
How it was run: as §1

dasatinib = compound: Cc1nc(Nc2ncc(C(=O)Nc3c(C)cccc3Cl)s2)cc(N2CCN(CCO)CC2)n1 [dasatinib]
How it was run: as §1

[3] = compound: Cc1ncc(-c2ccnc(Nc3ccc(S(C)(=O)=O)cc3)n2)n1C(C)C
How it was run: as §1

[4] = compound: Cn1cc(-c2ccc3c(c2)CCN3C(=O)Cc2cccc(C(F)(F)F)c2)c2c(N)ncnc21
How it was run: as §1

[5] = compound: Cn1cc(-c2ccc3nnc(C(F)(F)c4ccc5ncccc5c4)n3n2)cn1
How it was run: as §1

tipifarnib = compound: Cn1cncc1[C@@](N)(c1ccc(Cl)cc1)c1ccc2c(c1)c(-c1cccc(Cl)c1)cc(=O)n2C [tipifarnib]
How it was run: as §1

mubritinib = compound: FC(F)(F)c1ccc(/C=C/c2nc(COc3ccc(CCCCn4ccnn4)cc3)co2)cc1 [mubritinib]
How it was run: as §1

Measured: log2 fold change

AGPAT4 (UniProt Q9NRZ5)
inactive: bafetinib -0.131 | [1] 0.013 | nilotinib -0.08 | [2] -0.101 | dasatinib 0.041 | [3] 0.05 | [4] 0.056 | [5] 0.096 | tipifarnib -0.006 | mubritinib 0.182

ALDH6A1 (UniProt Q02252)
active: mubritinib -0.528
inactive: bafetinib -0.045 | [1] -0.103 | nilotinib -0.003 | [2] 0.018 | dasatinib -0.204 | [3] -0.015 | [4] -0.019 | [5] -0.019 | tipifarnib 0.01

AK4 (UniProt P27144)
inactive: bafetinib -0.05 | [1] 0.021 | nilotinib -0.008 | [2] 0.018 | dasatinib -0.016 | [3] -0.004 | [4] 0.077 | [5] 0.069 | tipifarnib 0.003 | mubritinib -0.005

AGL (UniProt P35573)
inactive: bafetinib 0.149 | [1] -0.018 | nilotinib 0.293 | [2] -0.093 | dasatinib 0 | [3] -0.161 | [4] -0.119 | [5] -0.138 | tipifarnib 0.199 | mubritinib 0.037

ADSS2 (UniProt P30520)
inactive: bafetinib 0.002 | [1] 0.019 | nilotinib 0.053 | [2] -0.001 | dasatinib 0.017 | [3] -0.029 | [4] 0.031 | [5] 0.029 | tipifarnib -0.024 | mubritinib 0.145

ADPRHL2 (UniProt Q9NX46)
active: mubritinib 0.349
inactive: bafetinib 0.201 | [1] 0.029 | nilotinib 0.013 | [2] 0.164 | dasatinib -0.034 | [3] 0.124 | [4] 0.082 | [5] 0.052 | tipifarnib -0.159

ANAPC10 (UniProt Q9UM13)
inactive: bafetinib -0.01 | [1] 0.088 | nilotinib 0.002 | [2] -0.026 | dasatinib 0.007 | [3] -0.011 | [4] -0.058 | [5] -0.012 | tipifarnib 0.03 | mubritinib 0.027

AIDA (UniProt Q96BJ3)
inactive: bafetinib -0.016 | [1] 0.073 | nilotinib 0.012 | [2] -0.065 | dasatinib -0.104 | [3] -0.092 | [4] 0 | [5] -0.001 | tipifarnib 0.004 | mubritinib -0.025

ADO (UniProt Q96SZ5)
inactive: bafetinib -0.029 | [1] -0.045 | nilotinib 0.038 | [2] 0.002 | dasatinib -0.011 | [3] 0.003 | [4] 0.052 | [5] -0.051 | tipifarnib -0.015 | mubritinib 0.025

ADD2 (UniProt P35612)
inactive: bafetinib 0.012 | [1] 0.011 | nilotinib 0.022 | [2] -0.026 | dasatinib -0.033 | [3] -0.048 | [4] 0.029 | [5] 0.001 | tipifarnib 0.035 | mubritinib 0.011

ADI1 (UniProt Q9BV57)
inactive: bafetinib -0.035 | [1] -0.03 | nilotinib -0.017 | [2] -0.029 | dasatinib -0.031 | [3] -0.006 | [4] 0.055 | [5] 0.052 | tipifarnib 0.005 | mubritinib 0.068

AFTPH isoform 9 (UniProt Q6ULP2)
inactive: bafetinib -0.064 | [1] -0.012 | nilotinib -0.081 | [2] 0.015 | dasatinib -0.005 | [3] -0.049 | [4] 0.031 | [5] 0.084 | tipifarnib -0.079 | mubritinib 0.102

ALDH1A2 (UniProt O94788)
inactive: bafetinib 0.017 | [1] -0.003 | nilotinib 0.058 | [2] 0 | dasatinib -0.002 | [3] 0.004 | [4] 0.048 | [5] 0.052 | tipifarnib -0.019 | mubritinib 0.059

AHNAK (UniProt Q09666)
inactive: bafetinib 0.004 | [1] -0.052 | nilotinib 0.034 | [2] -0.007 | dasatinib 0.02 | [3] 0.021 | [4] -0.044 | [5] -0.01 | tipifarnib 0.03 | mubritinib 0.003

AKR1C2 (UniProt P52895)
inactive: bafetinib 0.103 | [1] -0.111 | nilotinib 0.029 | [2] -0.057 | dasatinib -0.012 | [3] 0.028 | [4] -0.07 | [5] 0.223 | tipifarnib 0.271 | mubritinib -0.06

AKR1A1 (UniProt P14550)
inactive: bafetinib 0.001 | [1] -0.001 | nilotinib 0.005 | [2] -0.006 | dasatinib -0.054 | [3] -0.016 | [4] 0.03 | [5] -0.007 | tipifarnib -0.048 | mubritinib -0.028

AMFR (UniProt Q9UKV5)
inactive: bafetinib -0.095 | [1] 0.099 | nilotinib -0.051 | [2] -0.016 | dasatinib -0.094 | [3] 0.049 | [4] 0.029 | [5] -0.06 | tipifarnib 0.05 | mubritinib -0.018

AFG3L2 (UniProt Q9Y4W6)
inactive: bafetinib -0.072 | [1] 0 | nilotinib -0.04 | [2] -0.027 | dasatinib -0.072 | [3] -0.017 | [4] -0.008 | [5] 0.036 | tipifarnib -0.004 | mubritinib -0.119

ALKBH3 (UniProt Q96Q83)
inactive: bafetinib -0.041 | [1] -0.011 | nilotinib 0.017 | [2] 0.037 | dasatinib -0.036 | [3] -0.088 | [4] 0.019 | [5] 0.055 | tipifarnib -0.035 | mubritinib 0

ALKBH2 (UniProt Q6NS38)
inactive: bafetinib 0.122 | [1] -0.005 | nilotinib 0.034 | [2] 0.059 | dasatinib 0.04 | [3] -0.142 | [4] -0.201 | [5] -0.028 | tipifarnib 0.177 | mubritinib -0.027

AGO1 (UniProt Q9UL18)
inactive: bafetinib -0.036 | [1] -0.085 | nilotinib 0.185 | [2] 0.34 | dasatinib -0.019 | [3] -0.164 | [4] -0.073 | [5] -0.133 | tipifarnib 0.057 | mubritinib -0.066

AKAP12 (UniProt Q02952)
inactive: bafetinib -0.225 | [1] -0.148 | nilotinib 0.131 | [2] -0.041 | dasatinib -0.005 | [3] 0.102 | [4] 0.033 | [5] -0.063 | tipifarnib 0.017 | mubritinib 0.069

AKAP1 (UniProt Q92667)
inactive: bafetinib 0.021 | [1] 0.06 | nilotinib 0.031 | [2] -0.217 | dasatinib 0.014 | [3] -0.013 | [4] -0.006 | [5] -0.033 | tipifarnib 0.042 | mubritinib -0.074

Reprinted at random: two entries already listed.
ALKBH3 (UniProt Q96Q83)
inactive: bafetinib -0.041 | [1] -0.011 | nilotinib 0.017 | [2] 0.037 | dasatinib -0.036 | [3] -0.088 | [4] 0.019 | [5] 0.055 | tipifarnib -0.035 | mubritinib 0

AKAP12 (UniProt Q02952)
inactive: bafetinib -0.225 | [1] -0.148 | nilotinib 0.131 | [2] -0.041 | dasatinib -0.005 | [3] 0.102 | [4] 0.033 | [5] -0.063 | tipifarnib 0.017 | mubritinib 0.069

More entries follow.

ALG10B (UniProt Q5I7T1)
inactive: bafetinib -0.066 | [1] 0.022 | nilotinib -0.033 | [2] -0.078 | dasatinib -0.052 | [3] 0.074 | [4] 0.077 | [5] -0.076 | tipifarnib 0.08 | mubritinib -0.017

ALDOC (UniProt J3QKP5)
inactive: bafetinib -0.658 | [1] -0.619 | nilotinib -0.054 | [2] 0.123 | dasatinib 0.055 | [3] -0.033 | [4] 0.015 | [5] 0.095 | tipifarnib 0.174 | mubritinib -0.105
